Assay results from PMC9020716.
No constants are given. Whether binding was seen depends on the method and setting. Binding seen in cells or lysates may run through a third protein. These calls come from enrichment with a bait or labelling near it, and not all partners need be listed. Tags and fused reporters may be left off the sequences shown. Values belong to the molecule of their own block, whether it stands above or below them.

Columns and labels:
[1] = molecular target: T1, Posm-6-driven TurboID:GFP:SPD-5 (C. elegans) (UniProt P91349); assay: proximity labelling; direct TurboID in ciliated neurons: TurboID:GFP:SPD-5 under the osm-6 promoter against the TurboID:GFP control; L1 larvae, whole cell extracts, streptavidin pull-down, LC-MS/MS; Log2 enrichment >1, p-value <0.05
T1 sequence: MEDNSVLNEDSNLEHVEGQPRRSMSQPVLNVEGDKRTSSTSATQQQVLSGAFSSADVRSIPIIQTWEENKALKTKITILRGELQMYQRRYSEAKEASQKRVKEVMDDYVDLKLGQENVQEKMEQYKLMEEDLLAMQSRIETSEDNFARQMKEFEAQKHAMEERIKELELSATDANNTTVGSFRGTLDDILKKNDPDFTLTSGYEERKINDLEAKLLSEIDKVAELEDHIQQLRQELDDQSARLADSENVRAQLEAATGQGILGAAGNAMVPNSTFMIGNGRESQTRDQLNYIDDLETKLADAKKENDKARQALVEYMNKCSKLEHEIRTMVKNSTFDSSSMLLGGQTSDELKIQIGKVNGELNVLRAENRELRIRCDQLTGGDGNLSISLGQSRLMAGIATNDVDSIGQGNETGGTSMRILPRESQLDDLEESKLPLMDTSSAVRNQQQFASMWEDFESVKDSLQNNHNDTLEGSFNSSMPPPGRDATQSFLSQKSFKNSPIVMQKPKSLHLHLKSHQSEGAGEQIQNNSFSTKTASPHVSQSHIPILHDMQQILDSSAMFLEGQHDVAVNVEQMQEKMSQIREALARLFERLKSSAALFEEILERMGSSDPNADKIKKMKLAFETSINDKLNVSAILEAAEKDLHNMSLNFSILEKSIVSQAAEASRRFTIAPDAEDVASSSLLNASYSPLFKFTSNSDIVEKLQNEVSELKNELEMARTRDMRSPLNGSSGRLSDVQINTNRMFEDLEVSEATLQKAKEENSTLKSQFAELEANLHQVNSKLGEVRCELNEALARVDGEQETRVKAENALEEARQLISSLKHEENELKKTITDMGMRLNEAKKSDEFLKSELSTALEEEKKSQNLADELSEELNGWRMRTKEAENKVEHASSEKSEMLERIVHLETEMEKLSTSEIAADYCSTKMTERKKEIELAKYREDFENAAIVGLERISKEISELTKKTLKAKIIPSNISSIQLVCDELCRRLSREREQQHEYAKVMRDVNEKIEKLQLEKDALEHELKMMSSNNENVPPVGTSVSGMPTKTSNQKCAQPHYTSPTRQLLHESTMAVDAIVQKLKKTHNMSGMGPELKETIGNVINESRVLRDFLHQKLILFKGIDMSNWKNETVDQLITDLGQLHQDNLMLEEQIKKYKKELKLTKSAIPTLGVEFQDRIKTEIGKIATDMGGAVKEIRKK

[2] = molecular target: T2, GFP:TurboID:PLK-1 (C. elegans) (UniProt P34331); assay: proximity labelling; direct TurboID: GFP:TurboID fusion of the bait expressed as a transgene in mixed-stage C. elegans embryos, no supplemental biotin; insoluble (cytoskeletal) fraction resolubilised under denaturing conditions, streptavidin pull-down, LC-MS/MS; three replicates against the GFP:TurboID control; Log2 enrichment >1, p-value <0.05
T2 sequence: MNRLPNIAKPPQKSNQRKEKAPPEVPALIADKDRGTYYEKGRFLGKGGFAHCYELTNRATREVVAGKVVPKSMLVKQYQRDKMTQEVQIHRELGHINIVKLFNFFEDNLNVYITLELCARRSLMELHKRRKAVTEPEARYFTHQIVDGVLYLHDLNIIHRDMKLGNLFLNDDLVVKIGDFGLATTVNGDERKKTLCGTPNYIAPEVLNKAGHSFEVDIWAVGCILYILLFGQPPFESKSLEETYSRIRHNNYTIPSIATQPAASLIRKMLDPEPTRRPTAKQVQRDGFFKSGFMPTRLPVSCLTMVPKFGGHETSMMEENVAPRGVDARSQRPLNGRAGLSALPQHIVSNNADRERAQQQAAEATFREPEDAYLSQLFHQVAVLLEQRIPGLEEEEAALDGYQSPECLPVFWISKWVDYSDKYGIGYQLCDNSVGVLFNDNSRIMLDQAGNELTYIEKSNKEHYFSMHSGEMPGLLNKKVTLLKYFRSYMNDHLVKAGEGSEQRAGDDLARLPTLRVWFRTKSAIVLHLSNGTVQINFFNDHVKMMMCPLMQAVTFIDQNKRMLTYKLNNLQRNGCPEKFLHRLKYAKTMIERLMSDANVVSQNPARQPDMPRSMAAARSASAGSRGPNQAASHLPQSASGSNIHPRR

[3] = molecular target: T3, GFP:TurboID:SPD-5 (C. elegans) (UniProt P91349); assay: as above
T3 sequence: T1 sequence

binding [1]: binds
binding [2]: binds
binding [3]: binds
Molecule: PCMD-1

binding [1]: binds
binding [2]: binds
Molecule: ZK809.5

binding [1]: binds
binding [3]: binds
B1: RSA-2 (protein, UniProt G5EFV3 1-947)
chain: MSKIPVFKGSFKSWLAKNDEKPAKSVLLEPKYRDHHEKIRNKENMEEGEKPVFVSMANPQPTREDYERYDEDRRLKDKARDLRIARRRNSATPEASPSSDQYFTPEPADDEFVTPSTSKKSQKPRSSDATPVSSKPPRYLPRTPLSEQYTSCLSRKMEENFSRMQELMISGHSPHEARQQTIQESSEQLEPRAKVTRSSSQPPPIDTLKPRVPRIESPLVKKTTETPIRRTSYVDTLVATHQIQLQYSDRVVVGVERQMTKLESIKNLAAANRSPIIAEEAKKRRNEAEAVRKLIEVETQNAKKRAVIQELKDRIDKLTQAQLAIHQLVSSQPFSGDPYNQRLLRSIDNWMALPFREFDIQTAREMLELARKMKITIDHFRNVATLHRNSKSLNRSLNTSRKSIAVKINPSSQLNQQSSSDAAPPPSMREASTQMTSRLAESAMTQTSPRRIGVEPLDLSQLLEKHNSSSQTTPPVVEPVLAEVSAEPQRPPVTLSMTAPVSTIAEFDSMLNSISLHNESLETVAEPFSRLKTDISFPSTVEETTPRSGRVSLDSESARRLSAGLSHYLEQVKKERESMEAQESESESMELEIPVVSEVSVTTESENLEEVVSEHSDSKSPETLVASDNGEDSSGGSEDPNATQFEHEIEEHKEPEKLGLIIDPEDEQDETKRFVNHDEFEQSLEEELEPRGNNDSADDSGFLLDNSPAPRLKSIFDNLPPAAASAAVTDTPRVPAEADETTFAGMDMEEYCQREFLKEISPIMVQKAIELQDELRGVDWLTAQDVWQPPSFKDVQMEFDDNFEYFDSFSILIWSAVVDLINKNYLKFGRKMTENEEIAFEAEALKMLQTEHGPESRKSEWCTDVKMSKKLEGMMPMELDYRYDVRRGLPDAEKQKYQWQQVQMTVIAARYANKNLINEANEVYATEKEKLGQMVLESEIDATVTDV
